The supplement of paper PMC10849652
Some of the results follow.

Chains of the proteins cited; added tags and fusions are not shown. Lines headed by an entry give the natural chain unless they say otherwise; changes in a name come on top.
UniProt Q9Y312: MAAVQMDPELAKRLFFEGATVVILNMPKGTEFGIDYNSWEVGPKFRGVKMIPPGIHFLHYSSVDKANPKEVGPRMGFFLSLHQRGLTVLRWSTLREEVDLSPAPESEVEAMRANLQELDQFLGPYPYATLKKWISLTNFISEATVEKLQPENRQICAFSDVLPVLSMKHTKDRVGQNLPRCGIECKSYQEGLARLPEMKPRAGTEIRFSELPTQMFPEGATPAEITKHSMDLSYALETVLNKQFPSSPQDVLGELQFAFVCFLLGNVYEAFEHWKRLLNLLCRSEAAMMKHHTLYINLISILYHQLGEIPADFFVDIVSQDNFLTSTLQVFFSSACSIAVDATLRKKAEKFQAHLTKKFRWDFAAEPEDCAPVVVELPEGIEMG
UniProt Q9BWD1: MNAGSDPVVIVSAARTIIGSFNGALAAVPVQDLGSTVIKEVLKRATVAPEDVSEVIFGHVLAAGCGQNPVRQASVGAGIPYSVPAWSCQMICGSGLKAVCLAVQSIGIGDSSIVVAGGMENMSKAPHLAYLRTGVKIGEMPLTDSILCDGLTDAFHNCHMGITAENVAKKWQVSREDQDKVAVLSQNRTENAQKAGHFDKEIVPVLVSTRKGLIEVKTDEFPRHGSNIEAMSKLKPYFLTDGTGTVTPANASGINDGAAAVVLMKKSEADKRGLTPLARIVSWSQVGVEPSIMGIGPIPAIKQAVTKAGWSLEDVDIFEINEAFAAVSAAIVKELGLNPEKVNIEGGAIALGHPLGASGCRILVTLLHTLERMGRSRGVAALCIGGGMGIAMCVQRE
UniProt Q5JTZ9, whole entry, looked up: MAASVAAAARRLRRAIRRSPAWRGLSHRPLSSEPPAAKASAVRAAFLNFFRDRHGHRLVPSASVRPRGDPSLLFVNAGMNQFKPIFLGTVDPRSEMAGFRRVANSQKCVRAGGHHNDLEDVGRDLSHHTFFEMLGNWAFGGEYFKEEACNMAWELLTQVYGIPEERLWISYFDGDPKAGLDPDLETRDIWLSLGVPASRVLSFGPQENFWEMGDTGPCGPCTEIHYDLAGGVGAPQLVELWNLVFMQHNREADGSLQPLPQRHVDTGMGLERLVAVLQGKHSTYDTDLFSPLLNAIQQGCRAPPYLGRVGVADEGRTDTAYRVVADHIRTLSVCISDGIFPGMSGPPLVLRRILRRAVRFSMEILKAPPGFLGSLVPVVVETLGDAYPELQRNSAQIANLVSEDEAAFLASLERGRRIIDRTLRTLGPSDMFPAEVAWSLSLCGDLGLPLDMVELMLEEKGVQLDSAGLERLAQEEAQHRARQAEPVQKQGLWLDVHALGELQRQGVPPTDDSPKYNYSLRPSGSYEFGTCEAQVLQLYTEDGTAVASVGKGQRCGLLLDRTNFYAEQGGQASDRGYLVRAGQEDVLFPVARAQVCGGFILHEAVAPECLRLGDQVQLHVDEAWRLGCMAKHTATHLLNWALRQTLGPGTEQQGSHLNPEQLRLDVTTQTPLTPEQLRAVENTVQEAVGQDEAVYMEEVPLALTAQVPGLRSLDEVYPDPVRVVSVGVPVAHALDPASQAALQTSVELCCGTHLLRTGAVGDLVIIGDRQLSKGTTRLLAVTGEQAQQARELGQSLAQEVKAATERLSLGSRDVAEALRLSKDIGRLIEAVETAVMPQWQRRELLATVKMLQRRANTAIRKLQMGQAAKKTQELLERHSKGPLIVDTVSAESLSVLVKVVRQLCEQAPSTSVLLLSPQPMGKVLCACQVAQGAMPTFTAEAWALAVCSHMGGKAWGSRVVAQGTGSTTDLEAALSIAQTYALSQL
UniProt Q9H7C9: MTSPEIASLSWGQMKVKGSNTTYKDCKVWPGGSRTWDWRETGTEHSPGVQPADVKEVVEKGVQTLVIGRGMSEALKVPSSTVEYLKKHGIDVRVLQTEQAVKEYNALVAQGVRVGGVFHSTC
UniProt Q86V21: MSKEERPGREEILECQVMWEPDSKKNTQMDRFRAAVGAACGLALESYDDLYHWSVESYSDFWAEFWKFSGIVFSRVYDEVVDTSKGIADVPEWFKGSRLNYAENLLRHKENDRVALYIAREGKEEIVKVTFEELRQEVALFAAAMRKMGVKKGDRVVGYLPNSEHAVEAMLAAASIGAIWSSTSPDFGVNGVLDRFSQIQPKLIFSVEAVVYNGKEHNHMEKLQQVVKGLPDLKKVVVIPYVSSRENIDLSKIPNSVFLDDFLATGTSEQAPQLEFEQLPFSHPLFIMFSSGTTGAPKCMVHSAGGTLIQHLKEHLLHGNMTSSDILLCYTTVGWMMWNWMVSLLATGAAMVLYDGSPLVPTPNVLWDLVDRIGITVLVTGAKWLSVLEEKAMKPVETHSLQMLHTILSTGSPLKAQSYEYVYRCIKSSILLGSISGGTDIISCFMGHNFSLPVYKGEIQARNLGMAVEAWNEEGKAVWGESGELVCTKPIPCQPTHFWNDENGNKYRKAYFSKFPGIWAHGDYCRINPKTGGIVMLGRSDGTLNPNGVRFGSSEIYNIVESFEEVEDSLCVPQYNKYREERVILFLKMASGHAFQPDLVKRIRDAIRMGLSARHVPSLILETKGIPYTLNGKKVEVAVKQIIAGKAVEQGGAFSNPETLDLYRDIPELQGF
UniProt O14639: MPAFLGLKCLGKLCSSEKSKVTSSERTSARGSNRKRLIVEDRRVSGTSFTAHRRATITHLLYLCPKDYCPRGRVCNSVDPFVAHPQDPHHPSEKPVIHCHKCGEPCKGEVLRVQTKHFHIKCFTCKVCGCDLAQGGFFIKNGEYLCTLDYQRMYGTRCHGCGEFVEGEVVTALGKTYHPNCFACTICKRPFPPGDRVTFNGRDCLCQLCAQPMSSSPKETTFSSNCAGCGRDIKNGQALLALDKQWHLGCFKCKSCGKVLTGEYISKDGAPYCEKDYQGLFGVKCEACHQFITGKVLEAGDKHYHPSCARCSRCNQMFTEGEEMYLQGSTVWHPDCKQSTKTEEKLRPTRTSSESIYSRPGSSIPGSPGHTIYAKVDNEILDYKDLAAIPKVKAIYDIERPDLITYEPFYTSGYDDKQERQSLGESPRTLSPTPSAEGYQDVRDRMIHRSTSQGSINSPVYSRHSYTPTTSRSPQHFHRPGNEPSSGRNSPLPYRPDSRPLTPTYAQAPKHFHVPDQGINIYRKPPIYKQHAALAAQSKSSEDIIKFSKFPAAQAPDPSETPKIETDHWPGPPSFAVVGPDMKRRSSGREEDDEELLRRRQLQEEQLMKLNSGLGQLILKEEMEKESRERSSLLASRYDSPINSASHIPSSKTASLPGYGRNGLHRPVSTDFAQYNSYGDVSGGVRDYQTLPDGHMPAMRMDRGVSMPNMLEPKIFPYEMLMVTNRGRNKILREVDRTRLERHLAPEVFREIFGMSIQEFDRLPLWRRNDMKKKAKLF
UniProt Q9NRK6: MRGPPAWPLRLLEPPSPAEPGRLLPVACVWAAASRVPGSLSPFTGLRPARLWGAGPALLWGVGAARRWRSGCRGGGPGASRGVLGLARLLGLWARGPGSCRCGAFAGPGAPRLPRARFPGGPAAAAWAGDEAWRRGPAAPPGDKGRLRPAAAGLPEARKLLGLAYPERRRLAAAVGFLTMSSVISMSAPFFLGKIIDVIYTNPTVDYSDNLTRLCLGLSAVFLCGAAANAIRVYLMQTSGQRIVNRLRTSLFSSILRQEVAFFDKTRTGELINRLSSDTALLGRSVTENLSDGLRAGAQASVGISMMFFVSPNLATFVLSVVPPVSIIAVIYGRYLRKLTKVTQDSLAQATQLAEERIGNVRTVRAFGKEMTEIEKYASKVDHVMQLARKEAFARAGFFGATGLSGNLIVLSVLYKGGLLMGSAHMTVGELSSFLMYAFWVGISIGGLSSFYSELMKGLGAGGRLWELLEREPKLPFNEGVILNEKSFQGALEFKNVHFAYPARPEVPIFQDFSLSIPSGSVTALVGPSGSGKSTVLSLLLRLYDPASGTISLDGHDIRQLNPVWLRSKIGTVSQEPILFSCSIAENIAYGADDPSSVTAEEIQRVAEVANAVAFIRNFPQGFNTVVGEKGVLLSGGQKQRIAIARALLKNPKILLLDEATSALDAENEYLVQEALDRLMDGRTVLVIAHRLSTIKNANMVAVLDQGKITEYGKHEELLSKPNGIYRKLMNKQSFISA
UniProt P28288: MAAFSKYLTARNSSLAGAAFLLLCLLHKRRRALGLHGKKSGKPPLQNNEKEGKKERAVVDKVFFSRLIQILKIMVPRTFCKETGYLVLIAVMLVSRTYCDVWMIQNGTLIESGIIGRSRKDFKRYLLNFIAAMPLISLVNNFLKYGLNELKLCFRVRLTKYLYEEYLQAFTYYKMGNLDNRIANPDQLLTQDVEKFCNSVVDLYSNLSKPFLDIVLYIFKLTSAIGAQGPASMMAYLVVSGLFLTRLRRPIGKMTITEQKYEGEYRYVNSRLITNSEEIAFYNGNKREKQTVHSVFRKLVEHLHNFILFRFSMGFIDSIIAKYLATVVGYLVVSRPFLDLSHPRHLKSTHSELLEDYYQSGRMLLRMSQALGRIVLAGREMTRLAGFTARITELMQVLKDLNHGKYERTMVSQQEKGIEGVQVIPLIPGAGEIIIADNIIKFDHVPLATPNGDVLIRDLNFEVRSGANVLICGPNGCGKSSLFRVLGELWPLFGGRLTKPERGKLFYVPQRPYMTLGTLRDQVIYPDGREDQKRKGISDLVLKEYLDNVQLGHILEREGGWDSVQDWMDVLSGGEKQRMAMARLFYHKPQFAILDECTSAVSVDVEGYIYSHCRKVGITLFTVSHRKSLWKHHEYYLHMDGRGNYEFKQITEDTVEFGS
UniProt Q99798: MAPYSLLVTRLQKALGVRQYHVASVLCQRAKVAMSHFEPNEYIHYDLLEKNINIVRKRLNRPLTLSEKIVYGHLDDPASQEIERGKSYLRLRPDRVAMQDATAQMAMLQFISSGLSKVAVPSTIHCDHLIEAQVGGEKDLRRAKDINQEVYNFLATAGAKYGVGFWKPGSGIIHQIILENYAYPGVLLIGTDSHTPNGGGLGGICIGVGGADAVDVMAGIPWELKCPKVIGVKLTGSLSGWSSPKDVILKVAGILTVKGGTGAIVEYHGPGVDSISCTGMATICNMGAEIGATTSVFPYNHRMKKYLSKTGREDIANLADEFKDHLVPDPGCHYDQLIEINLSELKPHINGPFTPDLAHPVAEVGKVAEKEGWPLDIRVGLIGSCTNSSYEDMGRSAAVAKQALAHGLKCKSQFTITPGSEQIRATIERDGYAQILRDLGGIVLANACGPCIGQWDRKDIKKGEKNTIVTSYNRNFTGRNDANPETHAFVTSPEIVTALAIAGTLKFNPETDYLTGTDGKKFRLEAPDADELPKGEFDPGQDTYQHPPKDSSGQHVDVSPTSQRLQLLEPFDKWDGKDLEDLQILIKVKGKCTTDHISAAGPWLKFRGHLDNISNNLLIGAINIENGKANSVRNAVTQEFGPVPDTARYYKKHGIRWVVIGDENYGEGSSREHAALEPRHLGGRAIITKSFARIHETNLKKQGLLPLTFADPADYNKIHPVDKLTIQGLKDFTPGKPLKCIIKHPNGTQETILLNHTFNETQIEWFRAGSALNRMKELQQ
UniProt Q13685: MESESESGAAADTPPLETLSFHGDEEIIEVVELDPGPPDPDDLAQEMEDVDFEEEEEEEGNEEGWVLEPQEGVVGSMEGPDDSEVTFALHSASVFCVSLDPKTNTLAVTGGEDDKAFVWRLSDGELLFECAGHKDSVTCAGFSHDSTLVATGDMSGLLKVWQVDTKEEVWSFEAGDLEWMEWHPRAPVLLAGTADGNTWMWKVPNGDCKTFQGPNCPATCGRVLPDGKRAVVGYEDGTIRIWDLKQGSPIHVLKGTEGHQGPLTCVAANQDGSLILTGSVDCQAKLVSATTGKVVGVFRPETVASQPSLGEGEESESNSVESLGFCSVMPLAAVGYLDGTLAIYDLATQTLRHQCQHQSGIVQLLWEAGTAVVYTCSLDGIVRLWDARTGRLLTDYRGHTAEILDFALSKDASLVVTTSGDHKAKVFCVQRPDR
UniProt Q9H845: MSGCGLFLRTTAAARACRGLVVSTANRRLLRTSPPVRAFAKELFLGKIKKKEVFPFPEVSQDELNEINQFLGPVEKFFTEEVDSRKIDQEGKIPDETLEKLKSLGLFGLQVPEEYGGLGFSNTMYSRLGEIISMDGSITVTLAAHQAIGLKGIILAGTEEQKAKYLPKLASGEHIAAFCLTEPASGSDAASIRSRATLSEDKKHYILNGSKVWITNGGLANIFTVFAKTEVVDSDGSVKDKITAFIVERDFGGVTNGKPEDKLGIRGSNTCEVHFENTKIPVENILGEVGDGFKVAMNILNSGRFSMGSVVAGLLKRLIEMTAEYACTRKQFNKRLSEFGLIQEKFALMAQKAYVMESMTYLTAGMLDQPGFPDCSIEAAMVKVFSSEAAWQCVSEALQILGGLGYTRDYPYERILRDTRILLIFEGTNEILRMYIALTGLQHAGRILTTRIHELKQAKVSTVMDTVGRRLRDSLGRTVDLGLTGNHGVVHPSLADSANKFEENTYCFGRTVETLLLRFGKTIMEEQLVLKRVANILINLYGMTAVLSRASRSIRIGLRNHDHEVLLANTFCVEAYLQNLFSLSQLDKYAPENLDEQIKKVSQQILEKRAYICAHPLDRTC

Assays:
Test in all cases: log2 fold change, soluble protein after heating vs DMSO (PISA); higher = thermal stabilisation; K562 lysate, 10 uM; active = over 0.2 and 3.5 SD of the protein, either way, in both replicates (recomputed)
erlotinib = compound: C#Cc1cccc(Nc2ncnc3cc(OCCOC)c(OCCOC)cc23)c1 [erlotinib]
Procedure, shortened: (§1)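 K562 pellets were dounce-homogenised in PBS pH 7.4 containing 1 mM MgCl2, and the crude extract, at 1 mg/mL protein, was exposed to 10 μM compound for 30 min. Aliquots were heated for 3 min across 48°C-58°C, pooled, brought to 0.5% NP-40 at 4°C and spun at 21,000xg for 90 min, with the supernatant taken as soluble protein. TMTpro 16plex LC-MS/MS with equalised channel sums quantified that protein. Values are log-two fold changes in thermal stability relative to solvent controls, taken from duplicates.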

[1] = compound: C/C(=N\NC(=O)C1=CC(=CC=C1)S(=O)(=O)N2CCOCC2)/C3=C(C=CC(=C3)Cl)O
Procedure, shortened: as §1

[2] = compound: C1=CC(=CC=C1C2=NC3=C(N2)C=C(C=C3)C(=O)N)OC4=CC=C(C=C4)Cl
Procedure, shortened: as §1

[3] = compound: C1=CC2=C(C=CC(=C2)/C=C\3/C(=O)NC(=NCC4=CC=CS4)S3)N=C1
Procedure, shortened: as §1

[4] = compound: C1=CC2=NC=CN=C2C=C1/C=C/3\C(=O)NC(=O)S3
Procedure, shortened: as §1

[5] = compound: C1=CC=C(C=C1)C2=NC(=C(N2)C3=CC=NC=C3)C4=CC(=C(C=C4)Cl)O
Procedure, shortened: as §1

[6] = compound: C1=CC=C2C(=C1)C3=NNC4=CC=CC(=C43)C2=O
Procedure, shortened: as §1

[7] = compound: C1CCN(C1)C(=O)NC2=CC=CC(=C2)NC3=NC=C(C(=N3)NCCC4=CN=CN4)Br
Procedure, shortened: as §1

[8] = compound: C1CN(CCC1(CC2=CC=C(C=C2)Cl)N)C3=NC=NC4=C3C=CN4
Procedure, shortened: as §1

IRAK-1-4 Inhibitor I = compound: C1COCCN1CCN2C3=CC=CC=C3N=C2NC(=O)C4=CC(=CC=C4)[N+](=O)[O-] [IRAK-1-4 Inhibitor I]
Procedure, shortened: as §1

Target | log2 fold change (erlotinib) | log2 fold change [1] | log2 fold change [2] | log2 fold change [3] | log2 fold change [4] | log2 fold change [5] | log2 fold change [6] | log2 fold change [7] | log2 fold change [8] | log2 fold change (IRAK-1-4 Inhibitor I)
ACAA1 (UniProt P09110) | inactive: 0.03 | inactive: -0.455 | inactive: 0.041 | inactive: 0.015 | inactive: 0.03 | inactive: -0.036 | inactive: 0.016 | inactive: 0.014 | inactive: -0.024 | inactive: -0.006
ACAP2 (UniProt Q15057) | inactive: -0.011 | inactive: -0.003 | inactive: -0.012 | inactive: -0.005 | inactive: 0 | inactive: -0.08 | inactive: -0.022 | inactive: -0.008 | inactive: -0.027 | inactive: 0.024
ABHD17B (UniProt Q5VST6) | inactive: -0.08 | inactive: -0.047 | inactive: -0.011 | inactive: 0.044 | inactive: -0.043 | inactive: 0 | inactive: 0.021 | inactive: 0.064 | inactive: -0.111 | inactive: 0.014
AAR2 (UniProt Q9Y312) | inactive: 0.033 | inactive: 0.002 | inactive: -0.003 | inactive: -0.027 | inactive: 0.002 | inactive: -0.029 | inactive: -0.008 | inactive: -0.021 | inactive: -0.012 | inactive: 0.028
ACAT2 (UniProt Q9BWD1) | inactive: -0.023 | inactive: -0.098 | inactive: 0.031 | inactive: -0.054 | inactive: -0.006 | inactive: 0.025 | inactive: -0.007 | inactive: -0.011 | inactive: 0.015 | inactive: 0.028
A0A0B4J2A0, A0A0B4J2A0 | inactive: 0.014 | inactive: -0.01 | inactive: 0.033 | inactive: -0.048 | inactive: 0.015 | inactive: 0.017 | inactive: -0.061 | inactive: -0.011 | inactive: 0.026 | inactive: 0.021
ABHD17A isoform 2 (UniProt Q96GS6) | inactive: -0.016 | inactive: -0.046 | inactive: 0.081 | inactive: 0.025 | inactive: 0.022 | inactive: -0.009 | inactive: -0.07 | inactive: -0.023 | inactive: 0.025 | inactive: 0.006
ABL1 isoform 2 (UniProt P00519) | inactive: 0.026 | inactive: -0.005 | inactive: -0.013 | inactive: 0.026 | inactive: -0.027 | inactive: 0.033 | inactive: -0.022 | inactive: -0.035 | inactive: 0.015 | inactive: -0.01
AARS2 (UniProt Q5JTZ9) | inactive: 0.013 | inactive: -0.047 | inactive: -0.05 | inactive: 0.004 | inactive: -0.013 | inactive: 0.005 | inactive: -0.026 | inactive: -0.008 | inactive: 0.038 | inactive: -0.024
ABRAXAS2 (UniProt Q15018) | inactive: -0.019 | inactive: 0.056 | inactive: -0.056 | inactive: -0.03 | inactive: 0.003 | inactive: 0.014 | inactive: 0.06 | inactive: 0.01 | inactive: -0.014 | inactive: 0.016
AAAS (UniProt Q9NRG9) | inactive: 0.021 | inactive: -0.119 | inactive: -0.036 | inactive: -0.014 | inactive: -0.008 | inactive: -0.01 | inactive: -0.084 | inactive: -0.001 | inactive: 0.061 | inactive: 0.019
ABHD14B (UniProt Q96IU4) | inactive: 0.043 | inactive: 0.02 | inactive: 0.022 | inactive: -0.017 | inactive: -0.001 | inactive: 0.01 | inactive: -0.015 | inactive: -0.031 | inactive: 0.053 | inactive: 0.002
AAMDC (UniProt Q9H7C9) | inactive: 0.029 | inactive: 0.064 | inactive: -0.03 | inactive: -0.027 | inactive: 0.012 | inactive: -0.025 | inactive: 0.01 | inactive: 0 | inactive: 0.054 | inactive: -0.049
AACS (UniProt Q86V21) | inactive: 0.037 | inactive: -0.106 | inactive: 0.024 | inactive: -0.042 | inactive: -0.057 | inactive: 0.039 | inactive: -0.053 | inactive: -0.039 | inactive: -0.009 | inactive: -0.009
ACIN1 isoform 5 (UniProt Q9UKV3) | inactive: -0.011 | inactive: -0.025 | inactive: -0.023 | inactive: -0.028 | inactive: -0.037 | inactive: 0.001 | inactive: -0.001 | inactive: -0.006 | inactive: -0.007 | inactive: -0.006
A0A096LPI6, A0A096LPI6 | inactive: -0.052 | inactive: -0.016 | inactive: -0.02 | inactive: 0.016 | inactive: 0.02 | inactive: 0.009 | inactive: 0.016 | inactive: 0.005 | inactive: 0.003 | inactive: 0.015
ABLIM1 (UniProt O14639) | inactive: 0.132 | inactive: -0.003 | inactive: 0.069 | inactive: -0.076 | inactive: 0.018 | inactive: -0.016 | inactive: -0.004 | inactive: 0.017 | inactive: 0.041 | inactive: 0.013
ABCB10 (UniProt Q9NRK6) | inactive: -0.032 | inactive: -0.037 | inactive: -0.11 | inactive: -0.002 | inactive: -0.035 | inactive: -0.034 | inactive: 0.001 | inactive: -0.036 | inactive: -0.015 | inactive: -0.002
ABCD3 (UniProt P28288) | inactive: -0.1 | active: 0.556 | inactive: 0.217 | inactive: -0.051 | inactive: -0.055 | inactive: -0.075 | inactive: -0.031 | inactive: -0.084 | inactive: 0.044 | inactive: -0.003
ACO2 (UniProt Q99798) | inactive: -0.019 | inactive: -0.044 | inactive: 0.026 | inactive: -0.032 | inactive: -0.008 | inactive: -0.016 | inactive: -0.003 | inactive: -0.022 | inactive: 0.04 | inactive: 0.026
AAMP (UniProt Q13685) | inactive: 0.005 | inactive: 0.073 | inactive: 0.005 | inactive: -0.001 | inactive: 0.013 | inactive: 0.037 | inactive: 0.018 | inactive: 0.027 | inactive: 0.001 | inactive: 0.009
ACADSB (UniProt P45954) | inactive: -0.016 | inactive: 0.033 | inactive: -0.011 | inactive: -0.043 | inactive: 0.012 | inactive: -0.074 | inactive: -0.048 | inactive: 0.006 | inactive: -0.003 | inactive: -0.024
ACAA2 (UniProt P42765) | inactive: -0.012 | inactive: -0.018 | inactive: 0.033 | inactive: -0.027 | inactive: -0.008 | inactive: 0.005 | inactive: 0.034 | inactive: -0.001 | inactive: -0.008 | inactive: 0.029
ACAD9 (UniProt Q9H845) | inactive: -0.031 | inactive: 0.008 | inactive: -0.01 | inactive: 0.003 | inactive: -0.003 | inactive: 0.01 | inactive: -0.013 | inactive: 0.011 | inactive: 0.031 | inactive: 0.044

Pulled one by one from the list above, 2 records:
Target | log2 fold change (erlotinib) | log2 fold change [1] | log2 fold change [2] | log2 fold change [3] | log2 fold change [4] | log2 fold change [5] | log2 fold change [6] | log2 fold change [7] | log2 fold change [8] | log2 fold change (IRAK-1-4 Inhibitor I)
ABHD17A isoform 2 (UniProt Q96GS6) | inactive: -0.016 | inactive: -0.046 | inactive: 0.081 | inactive: 0.025 | inactive: 0.022 | inactive: -0.009 | inactive: -0.07 | inactive: -0.023 | inactive: 0.025 | inactive: 0.006
A0A0B4J2A0, A0A0B4J2A0 | inactive: 0.014 | inactive: -0.01 | inactive: 0.033 | inactive: -0.048 | inactive: 0.015 | inactive: 0.017 | inactive: -0.061 | inactive: -0.011 | inactive: 0.026 | inactive: 0.021
